Data: publication doi:10.1101/585604
Results are given in words; binding and its absence hold for the method and conditions named. In cells and extracts the contact can be indirect. A result given as binding can be weak or reduced; the word gives no strength. Sequences can lack the tags named with a protein.

Amino acid sequences for entries named in this document (tags omitted). A change or cut given only in a name is not applied to a line headed by its entry.
UniProt P41235: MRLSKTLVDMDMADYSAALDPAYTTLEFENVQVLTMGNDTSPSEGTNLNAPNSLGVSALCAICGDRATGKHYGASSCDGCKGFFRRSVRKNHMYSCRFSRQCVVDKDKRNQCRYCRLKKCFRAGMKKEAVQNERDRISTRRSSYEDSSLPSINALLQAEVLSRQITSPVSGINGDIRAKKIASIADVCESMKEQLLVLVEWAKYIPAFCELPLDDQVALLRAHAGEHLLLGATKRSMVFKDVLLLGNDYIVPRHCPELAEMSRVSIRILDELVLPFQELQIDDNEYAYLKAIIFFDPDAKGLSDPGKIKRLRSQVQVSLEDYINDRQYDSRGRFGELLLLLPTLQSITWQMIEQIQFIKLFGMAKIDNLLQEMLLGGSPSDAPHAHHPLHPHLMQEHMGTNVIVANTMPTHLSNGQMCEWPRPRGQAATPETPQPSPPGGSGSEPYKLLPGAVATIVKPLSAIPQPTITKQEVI

Biological target: GFP-tagged HNF4α4 (human) (UniProt P41235)
Assay: co-IP

binding: binds
B1: FLAG-tagged HNF4γ (protein, UniProt Q14541 1-408)
chain: MNTTDNGVNCLCAICGDRATGKHYGASSCDGCKGFFRRSIRKSHVYSCRFSRQCVVDKDKRNQCRYCRLRKCFRAGMKKEAVQNERDRISTRRSTFDGSNIPSINTLAQAEVRSRQISVSSPGSSTDINVKKIASIGDVCESMKQQLLVLVEWAKYIPAFCELPLDDQVALLRAHAGEHLLLGATKRSMMYKDILLLGNNYVIHRNSCEVEISRVANRVLDELVRPFQEIQIDDNEYACLKAIVFFDPDAKGLSDPVKIKNMRFQVQIGLEDYINDRQYDSRGRFGELLLLLPTLQSITWQMIEQIQFVKLFGMVKIDNLLQEMLLGGASNDGSHLHHPMHPHLSQDPLTGQTILLGPMSTLVHADQISTPETPLPSPPQGSGQEQYKIAANQASVISHQHLSKQKQL
